Measurements reported in PubChem BioAssay AID1159578 (Peter MacCallum Cancer Centre, 2015)
Assay: 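siRNA pools altering how lymphatic endothelial cells close a scratch wound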 (primary screen). Cell system: human lymphatic endothelial cells. Reagent: siRNA pool against human genes, 40 nM. Duration: 48 h after transfection. Measured: 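High-content imaging of dye-stained cells in a scratch assay measures filled wound area and nuclei per well; duplicate means given as ratio to mock and robust z-score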. Reading the numbers: migration robust z-score: higher = faster migration into the scratch; migration relative to mock: higher = more scratch area covered than mock; nuclei per well: higher = more cells in the well. Rule for the call: 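Pools averaging fewer than 3300 nuclei are never called; remaining pools count as changed when migration robust z lies outside -2 to 2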. Calls: active = migration changed; inactive = no migration change, or too few cells.
The deposit covers about 18,000 reagents; this is an unselected part. Of all reagents, about 1,030 (5.7%) are marked active. 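Inactive calls also include pools with fewer than 3300 nuclei, whose migration was not assessed.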 Raw values are not corrected between plates.

| gene symbol | PubChem SID | migration robust z-score | migration class with cell-count check | migration relative to mock | nuclei per well, duplicate mean | activity call |
| --- | --- | --- | --- | --- | --- | --- |
| KLHL13 | SID255361803 | -0.7 | migration z between -2 and 2; enough cells | 0.7 | 4578 | inactive |
| KRTAP13-3 | SID255364960 | 1.28 | migration z between -2 and 2; enough cells | 1.22 | 5708 | inactive |
| SLC39A13 | SID255361896 | 0.62 | migration z between -2 and 2; enough cells | 1.05 | 4542 | inactive |
| TSKU | SID255356597 | 0.62 | migration z between -2 and 2; enough cells | 1.04 | 5492 | inactive |
| S1PR3 | SID255349426 | 0.7 | migration z between -2 and 2; enough cells | 0.94 | 5421 | inactive |
| S1PR3 | SID255364909 | -1.94 | migration z between -2 and 2; enough cells | 0.38 | 6027 | inactive |
| GNB3 | SID255349945 | -0.37 | migration z between -2 and 2; enough cells | 0.79 | 6391 | inactive |
| ITFG1 | SID255360879 | 0.83 | migration z between -2 and 2; enough cells | 1.1 | 5636 | inactive |
| NABP1 | SID255360036 | -1.08 | migration z between -2 and 2; enough cells | 0.6 | 4922 | inactive |
| PGBD1 | SID255361406 | 0.39 | migration z between -2 and 2; enough cells | 0.99 | 5706 | inactive |
| NXF1 | SID255355117 | -4.02 | migration z below -2; enough cells | 0.03 | 4234 | active |
| S1PR2 | SID255354173 | 0.24 | migration z between -2 and 2; enough cells | 0.85 | 5420 | inactive |
| DNAJC9 | SID255356091 | -0.43 | migration z between -2 and 2; enough cells | 0.78 | 5086 | inactive |
| GGN | SID255364004 | 0.28 | migration z between -2 and 2; enough cells | 0.96 | 4760 | inactive |
| RHBDF1 | SID255359889 | -0.7 | migration z between -2 and 2; enough cells | 0.7 | 5163 | inactive |
| DEFB1 | SID255349284 | 2.9 | migration z above 2; enough cells | 1.64 | 5558 | active |
| NCAPH2 | SID255357172 | -0.92 | migration z between -2 and 2; enough cells | 0.64 | 4672 | inactive |
| SMG1 | SID255355954 | 0.16 | migration z between -2 and 2; enough cells | 0.84 | 4842 | inactive |
| MRPL23 | SID255352181 | -2.37 | migration z below -2; enough cells | 0.26 | 3540 | active |
| ABCB6 | SID255354775 | 1.84 | migration z between -2 and 2; enough cells | 1.16 | 6525 | inactive |
| PPP3R2 | SID255351761 | 0.16 | migration z between -2 and 2; enough cells | 0.84 | 5200 | inactive |
| MT4 | SID255361412 | 0.58 | migration z between -2 and 2; enough cells | 1.04 | 5636 | inactive |
| NRF1 | SID255351303 | 1.82 | migration z between -2 and 2; enough cells | 1.16 | 6199 | inactive |

Targets above whose target name starts with K or k:
| gene symbol | PubChem SID | migration robust z-score | migration class with cell-count check | migration relative to mock | nuclei per well, duplicate mean | activity call |
| --- | --- | --- | --- | --- | --- | --- |
| KLHL13 | SID255361803 | -0.7 | migration z between -2 and 2; enough cells | 0.7 | 4578 | inactive |
| KRTAP13-3 | SID255364960 | 1.28 | migration z between -2 and 2; enough cells | 1.22 | 5708 | inactive |
